{"source": "PubChem BioAssay AID504467", "about": "(National Center for Advancing Translational Sciences (NCATS), 2011)", "note": "Among all 330,000 compounds or so, about 7,700 (2.3%) were called active. The shares of active, inactive and inconclusive entries below differ from those in the screen. The call rests on the fitted dose curve; in most records, active means well fitted inhibition curve with a large enough effect; inconclusive means small, poorly fitted or top-dose-only effect, or effect the other way; inactive means flat fitted curve, though single readings scatter. Where the call is inconclusive, the potency comes from a doubtful curve fit. On the % scale 0 is the no-effect control and ±100 the full control effect; potency means the concentration at half of the fitted maximal effect."}
{"experiment": "qHTS screen for small molecules that inhibit ELG1-dependent DNA repair in human embryonic kidney (HEK293T) cells expressing luciferase-tagged ELG1; further: nearly all actives have a fitted effect of over 55% in size", "conditions": "HEK293T ELG1-luciferase reporter, luminescence, 16 h, DNA damage induced by 5-fluorouridine; activity change, negative = inhibition: at 46.1 µM (top of the series)", "in_short": "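HEK293T cells expressing luciferase-tagged ELG1 (2,000/well) received 5-Fluorouridine plus compound or DMSO for 16 hr at 37 °C. Luciferase was read by ONE-Glo luminescence after 30 min at room temperature.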"}
{"smiles": "COc1ccc(-c2nc3oc4cc(OC)ccc4c(=O)c3c(=O)n2Cc2ccco2)cc1", "Potency": "inconclusive: 29.1 µM [inhibitor, partial curve, poor fit]"}
{"smiles": "Brc1ccc(Nc2nc3ccccc3n3nnnc23)cc1", "Potency": "inconclusive: 32.6 µM [activator, partial curve, poor fit]"}
{"smiles": "Cn1nc(C(F)(F)F)c2cc(NC(=O)OCC(C)(C)C)sc21", "Potency": "inconclusive: 29.1 µM [inhibitor, single point]"}
{"smiles": "COc1ccc(NC(=O)NCCC2=CCCCC2)cc1", "Potency": "inconclusive: 10.3 µM [activator, partial curve]"}
{"smiles": "Oc1cccc(Nc2nc(O)c(/C=C3\\C=Nc4ccccc43)s2)c1", "Potency": "inconclusive: 6.51 µM [inhibitor, full curve, poor fit]"}
{"smiles": "COC(=O)C1=C(C)N(C)C(=S)NC1c1ccc(Cl)cc1", "note": "(stereo not drawn)", "activity change, negative = inhibition": "inactive: -0.989%"}
{"smiles": "COc1ccc2c(c1)c1c3n2CCN(C)C3=NCC1", "activity change, negative = inhibition": "inactive: 3.2%"}
{"smiles": "CCn1c(SCC(=O)NC(=O)NCc2ccco2)nnc1-c1cccs1", "activity change, negative = inhibition": "inactive: 10%"}
{"smiles": "Cc1ccsc1C(=O)N/N=C/c1ccc2c(c1)OCO2", "Potency": "inconclusive: 1.16 µM [activator, full curve]"}
{"smiles": "CC(C)C(C(=O)NC1=NCCS1)c1ccc(Cl)cc1", "note": "(stereo not drawn)", "activity change, negative = inhibition": "inactive: -7.89%"}
{"smiles": "Cc1ccc(S(=O)(=O)N2[C@@H](c3ccc(Br)cc3)C(C(=O)O)=CC[C@H]2c2cccc(C)c2)cc1", "activity change, negative = inhibition": "inactive: -3.51%"}
{"smiles": "CN1CCC(N(C)C(=O)c2ccc(Cl)c(S(=O)(=O)N(C)c3ccc(Cl)cc3)c2)CC1", "activity change, negative = inhibition": "inactive: -15.5%"}
{"smiles": "COc1cccc(Oc2ccc3nnc(C(F)(F)F)n3n2)c1", "activity change, negative = inhibition": "inactive: 10.7%"}
{"smiles": "COc1ccc2nc(N/C(N)=N/C(=S)Nc3ccccc3)nc(C)c2c1", "Potency": "inconclusive: 16.4 µM [inhibitor, single point]"}
{"smiles": "CCOc1cccc(C(=O)N/N=C/c2ccoc2)c1", "Potency": "inconclusive: 11.6 µM [activator, partial curve]"}
{"smiles": "COc1ccc(C(CNC(=O)COc2cc(C)c(Cl)c(C)c2)N2CCCCC2)cc1", "note": "(stereo not drawn)", "activity change, negative = inhibition": "inactive: -1.83%"}
{"smiles": "CC1Cc2nc(SCC(=O)Nc3ccc4c(c3)OCO4)n(-c3ccc(F)cc3)c(=O)c2S1", "note": "(stereo not drawn)", "activity change, negative = inhibition": "inactive: -4.82%"}
{"smiles": "C=CCn1cc(C(=O)NCc2cccnc2)c(=O)c2cc(S(=O)(=O)N(CC)CC)ccc21", "Potency": "inconclusive: 18.4 µM [inhibitor, partial curve]"}
{"smiles": "O=C(Nc1ccccc1)NN(C(=O)CCl)c1ccccc1", "Potency": "active: 23.1 µM"}
{"smiles": "CCOC(=O)/C=C/C(=O)Nc1nccs1", "activity change, negative = inhibition": "inactive: 0.275%"}
{"smiles": "Cc1ccc(-n2ncc3c(N4CCN(c5ccc(F)cc5)CC4)ncnc32)c(C)c1", "Potency": "inconclusive: 5.17 µM [inhibitor, full curve, poor fit]"}
{"smiles": "C/C(=N\\Nc1cccc2cccnc12)c1ccc(N)cc1", "Potency": "inconclusive: 14.6 µM [activator, partial curve]"}
{"smiles": "Cc1ccnc(NC(=O)CNC(=O)c2ccccc2)c1", "Potency": "inconclusive: 10.3 µM [activator, single point]"}
{"smiles": "Cc1ccc(OCC(=O)NNc2c3ccccc3nc3ccccc23)cc1", "Potency": "inconclusive: 18.4 µM [inhibitor, single point]"}
{"smiles": "CCOC(=O)c1c(NC(=O)Cc2cccs2)sc(C(=O)N2CCCCC2)c1C", "Potency": "inconclusive: 20.6 µM [inhibitor, single point]"}
{"smiles": "Cc1cccc(C)c1NC(=O)COC(=O)c1ccc2[nH]c3c(c2c1)CCCC3", "activity change, negative = inhibition": "inactive: -12.1%"}
{"smiles": "O=C(CSCc1ccc(Cl)cc1)Nc1ccc(O)cc1C(=O)O", "activity change, negative = inhibition": "inactive: 2.46%"}
{"smiles": "O=C1NC2c3ccccc3C(=O)N2c2c1cnn2-c1ccccc1", "note": "(stereo not drawn)", "Potency": "inconclusive: 16.4 µM [inhibitor, partial curve, poor fit]"}
{"smiles": "O=C(Nc1nsc(-c2ccccc2)n1)c1ccncc1", "Potency": "inconclusive: 18.4 µM [inhibitor, partial curve]"}
{"smiles": "CC1C(=O)N2CCCc3cc(NC(=O)C(=O)NCc4cccnc4)cc1c32", "note": "(stereo not drawn)", "Potency": "inconclusive: 11.6 µM [activator, single point]"}
{"smiles": "O=C(N/N=C/c1ccc(N2CCOCC2)o1)c1cccc([N+](=O)[O-])c1", "activity change, negative = inhibition": "inactive: -1.98%"}
{"smiles": "CC(=O)N1CCN(C(=O)c2ccco2)CC1", "activity change, negative = inhibition": "inactive: -10.7%"}
{"smiles": "CCCCCCC[C@@H](C/C=C/CCC(=O)N(C)C/C(=C/Cl)C/C(=C\\C(=O)N1CC(OC)=CC1=O)OC)OC", "Potency": "inconclusive: 1.3 µM [activator, partial curve]"}
{"smiles": "FC(F)(F)c1ccc(Cl)c(NC(=S)N/N=C/c2ccccc2Cl)c1", "activity change, negative = inhibition": "inactive: -0.218%"}
{"smiles": "Cc1ccc(C)c(NC(=O)c2cc(S(=O)(=O)N3CCOCC3)cn2C)c1", "activity change, negative = inhibition": "inactive: 0.18%"}
{"smiles": "CCCCOC(=O)c1c(C)oc2ccc(NS(=O)(=O)c3ccc4c5c(cccc35)C(=O)N4)cc12", "Potency": "inconclusive: 32.6 µM [inhibitor, partial curve, poor fit]"}
{"smiles": "O=C(c1nsnc1-c1ccccc1O)N1CCCCC1", "activity change, negative = inhibition": "inactive: 2.93%"}
{"smiles": "O=C1OC(Nc2nc3ccccc3s2)c2ccccc21", "note": "(stereo not drawn)", "Potency": "inconclusive: 20.6 µM [activator, single point]"}
{"smiles": "CCCN(CC1CC1)C(=O)CSc1ncnc2sc(C)c(C)c12", "Potency": "active: 18.4 µM"}
{"smiles": "N#Cc1c(NC(=O)CSc2ncn[nH]2)sc2c1CCCCC2", "Potency": "inconclusive: 18.4 µM [inhibitor, single point]"}
{"smiles": "CC1CC(CCC(=O)NC(=S)Nc2ccc(Cl)cn2)C(=O)O1", "note": "(stereo not drawn)", "activity change, negative = inhibition": "inactive: 12.4%"}
{"smiles": "O=C(COc1ccc2c(c1)OCO2)Nc1ccccc1F", "Potency": "inconclusive: 9.2 µM [activator, partial curve]"}
{"smiles": "CCCC1=Nc2cc(C(=O)N3CCC(C(N)=O)CC3)ccc2Sc2ccccc21", "activity change, negative = inhibition": "inactive: 0.506%"}
{"smiles": "CN(CC(=O)Nc1ccc(S(=O)(=O)N2CCCC2)cc1)Cc1ccc(Cl)c(Cl)c1", "Potency": "inconclusive: 23.1 µM [inhibitor, single point]"}
{"smiles": "O=C(Nc1cc(-c2nc3ncccc3o2)ccc1Cl)c1ccc([N+](=O)[O-])o1", "activity change, negative = inhibition": "inactive: -8.15%"}
{"smiles": "CC(=O)Nc1cc(NC(C)=O)cc(-c2nc3ccccc3[nH]2)c1", "activity change, negative = inhibition": "inactive: -10.8%"}
{"smiles": "COc1cc2c(O)c3c(c(-c4ccc5c(c4)OCO5)c2cc1OC)C(=O)OC3", "Potency": "inconclusive: 29.1 µM [inhibitor, partial curve, poor fit]"}
{"smiles": "CSc1nc(SCC(=O)NCc2ccco2)c2c3c(sc2n1)COC(C)(C)C3", "Potency": "inconclusive: 6.51 µM [inhibitor, single point]"}
{"smiles": "O=C(Nc1ccc(N2CCN(C(=O)c3cccs3)CC2)cc1)c1ccc(Br)o1", "Potency": "inconclusive: 25.9 µM [inhibitor, single point]"}
{"smiles": "COc1ccc(OC)c(-n2c(-c3ccc(S(C)(=O)=O)cc3)cc(C=O)c2C)c1", "Potency": "inconclusive: 29.1 µM [activator, single point]"}
{"smiles": "CCCC(=O)Nc1ccc(C(=O)COC(=O)C2CC2C)cc1", "note": "(stereo not drawn)", "Potency": "inconclusive: 16.4 µM [activator, partial curve]"}
{"smiles": "Cc1cc(C)c(C(=O)COC(=O)C2CC3CCCC(C2)C3=O)c(C)c1", "note": "(stereo not drawn)", "Potency": "inconclusive: 0.58 µM [inhibitor, single point]"}
{"smiles": "O=C1c2ccccc2CN1c1ccccc1", "Potency": "inconclusive: 16.4 µM [activator, partial curve]"}
{"smiles": "COc1cccc(C(=O)NC2CCN(CC(=O)Nc3c(C)cc(C)cc3C)CC2)c1", "Potency": "inconclusive: 23.1 µM [inhibitor, partial curve]"}
{"smiles": "Nc1ccc(CCn2ccnc2)cc1", "activity change, negative = inhibition": "inactive: -0.0807%"}
{"smiles": "C#CCOCCOCCOCCNc1nc(N2CCN(C(=O)CCCCCCCCCCNC(=O)[C@H]([C@@H](C)CC)n3cc(CCCCCN)nn3)CC2)nc(N2CCN(C(=O)CCCCCCCCCCNC(=O)[C@@H]([C@H](C)CC)n3cc(CCCCCN)nn3)CC2)n1", "Potency": "inconclusive: 15.8 µM [inhibitor, single point]"}
{"smiles": "COc1ccc2c(c1OC)c(=O)n1c3ccc(OC(C)C(=O)NCCN4CCOCC4)cc3c3ccnc2c31", "note": "(stereo not drawn)", "Potency": "inconclusive: 3.26 µM [inhibitor, partial curve, poor fit]"}
{"smiles": "CCOC(=O)N1CCN(CC(O)COC2CC(C)CC(C)(C)C2)CC1", "note": "(stereo not drawn)", "Potency": "inconclusive: 3.26 µM [activator, single point]"}
{"smiles": "CC(C)=N/N=c1\\scc(C)n1Cc1ccco1", "activity change, negative = inhibition": "inactive: -4.23%"}
{"smiles": "Cc1ccc(/C=N\\NC(=O)CCc2n[nH]c(=O)[nH]c2=O)o1", "activity change, negative = inhibition": "inactive: 0.24%"}
{"smiles": "O=C(COC(=O)c1nc(Cl)c(Cl)c(Cl)c1Cl)c1ccc[nH]1", "Potency": "inconclusive: 23.1 µM [activator, single point]"}
{"smiles": "Cc1ccc(-c2nc(-c3ccncc3)no2)c(Cl)c1", "Potency": "inconclusive: 1.16 µM [activator, partial curve]"}
{"smiles": "O=C(NCc1nnnn1-c1ccc(Cl)cc1)c1ccc(Br)o1", "activity change, negative = inhibition": "inactive: 8.05%"}
{"smiles": "CCCCCCCCCCOC(=O)Cn1c(COc2ccccc2OC)[n+](C)c2ccccc21", "Potency": "inconclusive: 23.1 µM [inhibitor, single point]"}
{"smiles": "Cc1cc(Cl)ccc1NC(=S)Nc1cccnc1", "activity change, negative = inhibition": "inactive: 18.1%"}
{"smiles": "CCCCN(CC)CCCNC(=O)c1cc2c(=O)n(C)c3ccccc3c2n1C", "Potency": "inconclusive: 11.6 µM [activator, partial curve]"}
{"smiles": "Cc1ccc(C(=O)NCc2ccco2)cc1S(=O)(=O)N1CCCC1", "activity change, negative = inhibition": "inactive: -2.79%"}
{"smiles": "O=C(N/N=C/c1coc2ccc(Cl)cc2c1=O)c1cc(O)cc(O)c1", "Potency": "inconclusive: 16.4 µM [inhibitor, single point]"}
{"smiles": "COc1ccc(NC(=O)C2CCC(=O)N2S(=O)(=O)c2ccc(C)cc2)cc1Cl", "note": "(stereo not drawn)", "activity change, negative = inhibition": "inactive: 1.03%"}
{"smiles": "CC(=O)N=c1sc2cc(C)ccc2n1C", "Potency": "inconclusive: 18.4 µM [activator, single point]"}
{"smiles": "CCCCC(=O)NC(=S)Nc1cccc(Cl)c1N1CCCCC1", "Potency": "inconclusive: 18.4 µM [activator, single point]"}
{"smiles": "Cc1nc(N2CCN(S(=O)(=O)c3cccc4nonc34)CC2)c2c3c(sc2n1)CCCC3", "Potency": "active: 18.4 µM"}
{"smiles": "CS(=O)(=O)N(CC(=O)N1CCN(c2ccccc2)CC1)Cc1ccc(Cl)cc1", "Potency": "inconclusive: 25.9 µM [inhibitor, single point]"}
